# In the supplement of paper PMC10849652:
# Chains of the proteins cited; added tags and fusions are not shown. Lines headed by an entry give the natural chain unless they say otherwise; changes in a name come on top.
# UniProt O43516: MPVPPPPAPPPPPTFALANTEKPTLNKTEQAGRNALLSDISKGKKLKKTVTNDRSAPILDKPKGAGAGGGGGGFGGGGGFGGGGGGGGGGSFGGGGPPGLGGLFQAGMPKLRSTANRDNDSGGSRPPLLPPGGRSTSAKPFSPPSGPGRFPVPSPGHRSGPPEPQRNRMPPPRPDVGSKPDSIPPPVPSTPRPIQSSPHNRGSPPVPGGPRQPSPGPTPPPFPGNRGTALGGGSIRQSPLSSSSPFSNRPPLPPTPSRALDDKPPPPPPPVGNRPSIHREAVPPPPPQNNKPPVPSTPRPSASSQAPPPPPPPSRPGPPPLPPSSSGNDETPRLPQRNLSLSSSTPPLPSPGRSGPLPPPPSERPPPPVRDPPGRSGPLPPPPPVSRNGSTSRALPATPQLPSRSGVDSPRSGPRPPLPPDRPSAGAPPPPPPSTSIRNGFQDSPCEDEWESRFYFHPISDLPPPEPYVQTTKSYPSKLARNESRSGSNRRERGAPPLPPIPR
# UniProt Q9NW82: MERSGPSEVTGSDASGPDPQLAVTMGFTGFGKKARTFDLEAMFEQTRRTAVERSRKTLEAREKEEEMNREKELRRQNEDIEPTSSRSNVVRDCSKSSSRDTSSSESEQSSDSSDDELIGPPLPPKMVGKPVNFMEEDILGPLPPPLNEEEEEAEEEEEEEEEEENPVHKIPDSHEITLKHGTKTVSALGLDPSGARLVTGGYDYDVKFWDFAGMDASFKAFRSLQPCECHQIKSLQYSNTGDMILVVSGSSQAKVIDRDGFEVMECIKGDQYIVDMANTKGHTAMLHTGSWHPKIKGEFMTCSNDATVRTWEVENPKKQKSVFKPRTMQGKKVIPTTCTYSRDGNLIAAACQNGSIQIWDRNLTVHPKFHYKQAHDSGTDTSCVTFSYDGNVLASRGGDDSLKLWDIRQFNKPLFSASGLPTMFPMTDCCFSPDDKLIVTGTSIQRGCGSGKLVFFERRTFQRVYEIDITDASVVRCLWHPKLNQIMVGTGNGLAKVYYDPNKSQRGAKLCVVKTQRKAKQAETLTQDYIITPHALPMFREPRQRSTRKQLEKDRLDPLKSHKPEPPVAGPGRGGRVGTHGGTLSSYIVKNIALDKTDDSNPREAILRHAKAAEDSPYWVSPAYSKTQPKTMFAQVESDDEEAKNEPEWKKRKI
# UniProt Q5JSH3: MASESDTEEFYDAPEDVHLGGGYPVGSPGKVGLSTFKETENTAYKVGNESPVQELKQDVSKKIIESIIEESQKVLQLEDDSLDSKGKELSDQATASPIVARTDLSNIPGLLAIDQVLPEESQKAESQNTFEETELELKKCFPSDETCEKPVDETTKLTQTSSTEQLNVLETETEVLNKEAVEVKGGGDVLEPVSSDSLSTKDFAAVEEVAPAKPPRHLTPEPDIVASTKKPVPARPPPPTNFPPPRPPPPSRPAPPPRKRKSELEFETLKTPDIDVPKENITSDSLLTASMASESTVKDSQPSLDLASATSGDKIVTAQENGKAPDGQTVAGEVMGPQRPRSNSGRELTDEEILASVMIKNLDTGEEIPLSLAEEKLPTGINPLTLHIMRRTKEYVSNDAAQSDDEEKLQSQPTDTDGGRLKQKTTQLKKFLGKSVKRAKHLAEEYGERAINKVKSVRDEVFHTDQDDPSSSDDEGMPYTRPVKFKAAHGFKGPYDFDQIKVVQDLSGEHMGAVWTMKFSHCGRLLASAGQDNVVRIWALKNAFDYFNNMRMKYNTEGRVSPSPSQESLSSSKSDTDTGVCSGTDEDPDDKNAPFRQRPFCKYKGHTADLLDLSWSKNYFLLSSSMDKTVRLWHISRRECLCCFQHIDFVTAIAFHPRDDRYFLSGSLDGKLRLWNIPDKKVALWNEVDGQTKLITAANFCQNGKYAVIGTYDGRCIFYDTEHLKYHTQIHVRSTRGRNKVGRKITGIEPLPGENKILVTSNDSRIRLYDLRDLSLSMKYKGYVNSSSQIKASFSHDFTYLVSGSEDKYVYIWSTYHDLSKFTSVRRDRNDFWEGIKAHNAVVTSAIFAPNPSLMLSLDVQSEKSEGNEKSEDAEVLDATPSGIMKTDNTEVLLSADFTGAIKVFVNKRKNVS
# UniProt O95497: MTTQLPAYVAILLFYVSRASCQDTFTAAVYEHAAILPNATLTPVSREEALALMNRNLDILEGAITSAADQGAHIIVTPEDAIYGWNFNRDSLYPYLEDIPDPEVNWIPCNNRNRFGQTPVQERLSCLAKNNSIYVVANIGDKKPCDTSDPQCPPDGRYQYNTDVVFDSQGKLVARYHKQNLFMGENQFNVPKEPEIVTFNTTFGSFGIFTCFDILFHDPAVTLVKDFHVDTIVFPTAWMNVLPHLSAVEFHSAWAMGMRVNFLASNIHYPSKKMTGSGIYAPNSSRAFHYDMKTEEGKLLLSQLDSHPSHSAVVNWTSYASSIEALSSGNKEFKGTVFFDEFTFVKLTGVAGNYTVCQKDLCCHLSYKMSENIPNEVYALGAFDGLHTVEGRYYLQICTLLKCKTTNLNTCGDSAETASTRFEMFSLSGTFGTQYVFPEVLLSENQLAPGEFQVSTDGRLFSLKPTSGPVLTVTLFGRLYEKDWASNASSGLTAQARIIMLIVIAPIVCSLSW
# UniProt Q9Y277: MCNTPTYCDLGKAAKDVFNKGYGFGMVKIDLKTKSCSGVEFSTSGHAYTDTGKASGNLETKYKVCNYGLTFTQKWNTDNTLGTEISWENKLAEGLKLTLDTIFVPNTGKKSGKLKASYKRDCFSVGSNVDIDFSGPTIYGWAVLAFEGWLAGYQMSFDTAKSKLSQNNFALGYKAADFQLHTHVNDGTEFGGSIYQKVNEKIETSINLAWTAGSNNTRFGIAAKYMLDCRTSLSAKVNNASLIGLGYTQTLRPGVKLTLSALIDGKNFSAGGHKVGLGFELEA
# UniProt Q5MNZ9: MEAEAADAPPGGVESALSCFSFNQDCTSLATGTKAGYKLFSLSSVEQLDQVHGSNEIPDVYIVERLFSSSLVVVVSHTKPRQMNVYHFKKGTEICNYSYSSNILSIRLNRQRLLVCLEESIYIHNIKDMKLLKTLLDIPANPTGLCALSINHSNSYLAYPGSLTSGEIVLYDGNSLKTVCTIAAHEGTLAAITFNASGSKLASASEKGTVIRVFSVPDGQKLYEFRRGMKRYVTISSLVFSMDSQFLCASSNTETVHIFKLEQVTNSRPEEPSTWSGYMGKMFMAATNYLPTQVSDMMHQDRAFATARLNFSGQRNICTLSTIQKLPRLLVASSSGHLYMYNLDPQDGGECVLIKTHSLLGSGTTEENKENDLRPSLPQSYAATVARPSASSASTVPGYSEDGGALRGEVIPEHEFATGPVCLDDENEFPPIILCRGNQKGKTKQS
# UniProt Q8NEZ3: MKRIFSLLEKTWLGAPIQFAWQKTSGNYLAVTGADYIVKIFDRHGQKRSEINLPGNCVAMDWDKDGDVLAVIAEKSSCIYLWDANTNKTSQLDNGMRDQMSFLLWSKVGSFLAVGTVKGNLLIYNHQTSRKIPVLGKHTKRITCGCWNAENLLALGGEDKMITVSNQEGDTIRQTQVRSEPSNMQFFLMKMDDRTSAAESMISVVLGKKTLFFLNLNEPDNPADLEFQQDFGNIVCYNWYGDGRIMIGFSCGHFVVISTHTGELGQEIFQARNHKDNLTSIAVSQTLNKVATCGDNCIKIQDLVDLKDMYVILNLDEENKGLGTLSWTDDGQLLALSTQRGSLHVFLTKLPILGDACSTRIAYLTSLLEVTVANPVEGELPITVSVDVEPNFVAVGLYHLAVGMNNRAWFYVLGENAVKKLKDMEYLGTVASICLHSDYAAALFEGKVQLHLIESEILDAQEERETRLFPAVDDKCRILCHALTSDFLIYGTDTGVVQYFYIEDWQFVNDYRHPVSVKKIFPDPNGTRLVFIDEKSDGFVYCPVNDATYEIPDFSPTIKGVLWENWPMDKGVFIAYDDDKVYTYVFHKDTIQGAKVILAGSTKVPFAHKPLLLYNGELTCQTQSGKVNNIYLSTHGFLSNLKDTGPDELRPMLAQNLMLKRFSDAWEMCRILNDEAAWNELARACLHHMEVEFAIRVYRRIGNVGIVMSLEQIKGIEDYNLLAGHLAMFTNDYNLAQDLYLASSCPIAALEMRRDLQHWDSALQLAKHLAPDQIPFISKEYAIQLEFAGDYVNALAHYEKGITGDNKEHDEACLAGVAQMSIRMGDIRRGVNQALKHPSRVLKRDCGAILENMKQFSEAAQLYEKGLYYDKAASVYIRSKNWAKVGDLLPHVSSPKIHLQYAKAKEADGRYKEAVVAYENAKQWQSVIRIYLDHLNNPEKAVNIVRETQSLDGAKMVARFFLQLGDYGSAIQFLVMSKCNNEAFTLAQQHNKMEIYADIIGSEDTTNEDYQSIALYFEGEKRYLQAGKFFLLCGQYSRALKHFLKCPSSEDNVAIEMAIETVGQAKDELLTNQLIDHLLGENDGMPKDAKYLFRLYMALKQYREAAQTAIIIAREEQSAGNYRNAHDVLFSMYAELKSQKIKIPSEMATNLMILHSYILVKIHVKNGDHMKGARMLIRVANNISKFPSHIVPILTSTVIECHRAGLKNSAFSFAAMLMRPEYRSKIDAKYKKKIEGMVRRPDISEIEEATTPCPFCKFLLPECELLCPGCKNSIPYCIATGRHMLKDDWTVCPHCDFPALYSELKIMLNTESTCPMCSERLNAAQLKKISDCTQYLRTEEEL
# UniProt O95785: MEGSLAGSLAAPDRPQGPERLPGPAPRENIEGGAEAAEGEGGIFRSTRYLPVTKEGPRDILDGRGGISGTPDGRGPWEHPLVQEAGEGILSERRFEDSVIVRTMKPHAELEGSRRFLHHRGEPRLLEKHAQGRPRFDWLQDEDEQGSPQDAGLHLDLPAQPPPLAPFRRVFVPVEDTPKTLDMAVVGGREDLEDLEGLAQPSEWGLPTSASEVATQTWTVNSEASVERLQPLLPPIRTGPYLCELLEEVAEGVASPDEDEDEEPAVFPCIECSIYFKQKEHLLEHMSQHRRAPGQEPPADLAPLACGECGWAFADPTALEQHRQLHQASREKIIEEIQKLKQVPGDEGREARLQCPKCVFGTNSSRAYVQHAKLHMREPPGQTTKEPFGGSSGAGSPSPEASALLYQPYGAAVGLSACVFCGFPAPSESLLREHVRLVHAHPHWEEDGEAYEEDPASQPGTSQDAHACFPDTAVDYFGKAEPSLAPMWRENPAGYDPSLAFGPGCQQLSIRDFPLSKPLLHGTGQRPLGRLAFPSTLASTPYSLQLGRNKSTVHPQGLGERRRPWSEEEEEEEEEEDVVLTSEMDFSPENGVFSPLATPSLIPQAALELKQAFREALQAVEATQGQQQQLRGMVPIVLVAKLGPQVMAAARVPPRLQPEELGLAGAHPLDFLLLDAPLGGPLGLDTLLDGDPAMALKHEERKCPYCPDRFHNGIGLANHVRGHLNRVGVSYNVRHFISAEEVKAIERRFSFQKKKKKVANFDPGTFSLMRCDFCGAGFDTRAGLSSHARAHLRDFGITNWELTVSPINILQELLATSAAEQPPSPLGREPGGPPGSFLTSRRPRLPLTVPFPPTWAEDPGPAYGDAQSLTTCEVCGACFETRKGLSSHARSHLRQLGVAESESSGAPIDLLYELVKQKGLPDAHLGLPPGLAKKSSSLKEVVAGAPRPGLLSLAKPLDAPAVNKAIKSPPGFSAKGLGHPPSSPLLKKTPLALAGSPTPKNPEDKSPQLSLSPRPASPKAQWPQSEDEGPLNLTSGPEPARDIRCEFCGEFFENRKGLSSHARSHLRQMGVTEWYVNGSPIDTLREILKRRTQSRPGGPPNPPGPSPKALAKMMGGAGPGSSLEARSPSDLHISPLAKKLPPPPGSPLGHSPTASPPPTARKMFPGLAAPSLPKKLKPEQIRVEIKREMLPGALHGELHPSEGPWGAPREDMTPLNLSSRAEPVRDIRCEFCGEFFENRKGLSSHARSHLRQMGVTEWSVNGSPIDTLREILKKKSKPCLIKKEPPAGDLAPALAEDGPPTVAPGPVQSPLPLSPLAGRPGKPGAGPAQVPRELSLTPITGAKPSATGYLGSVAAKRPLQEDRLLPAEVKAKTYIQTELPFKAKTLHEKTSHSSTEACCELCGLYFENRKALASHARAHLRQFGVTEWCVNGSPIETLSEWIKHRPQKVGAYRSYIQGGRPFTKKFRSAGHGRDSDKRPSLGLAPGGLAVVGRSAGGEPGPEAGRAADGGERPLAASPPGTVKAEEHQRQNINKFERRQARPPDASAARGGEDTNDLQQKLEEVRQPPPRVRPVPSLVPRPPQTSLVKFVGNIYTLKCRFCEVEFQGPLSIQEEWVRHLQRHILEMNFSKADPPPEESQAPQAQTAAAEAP
# UniProt P40337, whole entry, looked up: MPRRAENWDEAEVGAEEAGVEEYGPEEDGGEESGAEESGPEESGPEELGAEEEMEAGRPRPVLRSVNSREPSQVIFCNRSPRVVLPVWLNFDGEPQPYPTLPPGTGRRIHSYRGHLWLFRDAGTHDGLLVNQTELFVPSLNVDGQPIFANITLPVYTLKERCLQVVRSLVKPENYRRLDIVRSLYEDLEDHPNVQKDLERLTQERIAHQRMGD
# This is one part of the list.
# Compound: c1cn2cc(-c3ccc4cn[nH]c4c3)nc(Nc3ccc(N4CCOCC4)cc3)c2n1 [entospletinib]
# Assay: log2 fold change, soluble protein after heating vs DMSO (PISA); higher = thermal stabilisation; K562 cells, 10 uM, 30 min; active = over 0.2 and 3.5 SD of the protein, either way, in both replicates (recomputed)
# Procedure, shortened: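 K562 cells at 2×10^6 cells/mL were treated with 10 μM compound for 30 min. Aliquots were heated for 3 min across 48°C-58°C, pooled, and extracted in PBS with 0.5% NP-40 at 4°C; soluble protein was the supernatant after 21,000xg for 90 min. Soluble protein was quantified by TMTpro 16plex LC-MS/MS with channel sums equalised, and reported as log2 fold change in thermal stability against DMSO controls, with values from duplicates.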
row,Target,log2 fold change
1,WIPF1 isoform 3 (UniProt O43516),inactive: 0.005
2,VPS36 (UniProt Q86VN1),inactive: -0.053
3,VMA21 isoform 2 (UniProt Q3ZAQ7),inactive: -0.009
4,WASF2 (UniProt Q9Y6W5),inactive: -0.024
5,WDR70 (UniProt Q9NW82),inactive: 0.025
6,WDR44 (UniProt Q5JSH3),inactive: -0.024
7,VNN1 (UniProt O95497),inactive: 0.048
8,WRAP53 (UniProt Q9BUR4),inactive: -0.062
9,VDAC3 (UniProt Q9Y277),inactive: 0.008
10,WDR3 (UniProt Q9UNX4),inactive: 0.044
11,WIPI1 (UniProt Q5MNZ9),inactive: -0.147
12,WDR5 (UniProt P61964),inactive: 0.057
13,WDR19 (UniProt Q8NEZ3),inactive: -0.089
14,VPS4B (UniProt O75351),inactive: 0.01
15,VMA21 (UniProt Q3ZAQ7),inactive: 0.035
16,VPS13C (UniProt Q709C8),inactive: 0.036
17,WIZ isoform 3 (UniProt O95785),inactive: 0.023
18,VPS13D (UniProt Q5THJ4),inactive: 0.059
19,VWA5A (UniProt O00534),inactive: -0.022
20,WASF1 (UniProt Q92558),inactive: 0.027
21,VHL (UniProt P40337),inactive: 0.181
22,WDR12 (UniProt Q9GZL7),inactive: -0.018
23,WBP11 (UniProt Q9Y2W2),inactive: -0.017
24,WDR89 (UniProt Q96FK6),inactive: -0.009
25,VIRMA (UniProt Q69YN4),inactive: 0.102
26,VTN (UniProt P04004),inactive: 0.174
27,WDR82 (UniProt Q6UXN9),inactive: 0.052
28,WDR13 (UniProt Q9H1Z4),inactive: 0.11

# Copied from the entries so far (2 entries):
row,Target,log2 fold change
18,VPS13D (UniProt Q5THJ4),inactive: 0.059
19,VWA5A (UniProt O00534),inactive: -0.022
